According to PubChem BioAssay AID2685 (National Center for Advancing Translational Sciences (NCATS), 2010):
The list shows a part of the results. Shown are side measurements of this screen, not its main read-out; they come without a call. The list favours compounds with an active or inconclusive main result. Words in brackets tell the shape of the fitted curve; partial curves, single points and poor fits give uncertain potencies.

Test: qHTS Assay for Lipid Storage Modulators in Drosophila S3 Cells;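 for cell number change: cells counted by Cell Tracker Red CMTPX staining in the red channel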
Settings: BODIPY lipid droplet fluorescence, 18-24 h; for cell number change: measured here: cell count max response, cells fed with added oleic acid
Summary of the method: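 Drosophila S3 cells loaded with oleic acid (400 uM, as added) and compounds at several concentrations; lipid droplets imaged by 488-nm laser-scanning cytometry, 500–530 nm intensity and object ratio to cell channel. Percent activity normalized to 20 uM Triacsin C.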

[1] = measured here: lipid fluorescence (Fed channel) AC50, cells fed with added oleic acid
[2] = measured here: cell number channel AC50, cells fed with added oleic acid

Compound | cell number change [%] | AC50 [1] | AC50 [2]
Cc1nn(C)c(Cl)c1/C=N/OC(=O)c1ccc(F)cc1 | -48.9 | 35.5 µM [falling, partial curve, poor fit] | –
CC(=O)c1ccc(OCC(O)CN2CCOCC2)cc1 (stereo unspecified) | 37.2 | 6.51 µM [rising, partial curve, poor fit] | 7.31 µM [rising, single point]
COC(=O)c1sc(OC)cc1OCc1ccc(C)cc1 | 42.8 | 20.6 µM [rising, partial curve] | 20.6 µM [rising, single point]
COc1ccc(Nc2ncc(C(=O)O)c3ccccc23)cc1 | 15.3 | 0.259 µM [falling, full curve, poor fit] | –
C=CCN(C)CC/C=C1\c2ccccc2CSc2ccccc21 | -33.2 | 29.1 µM [falling, single point] | 23.1 µM [falling, single point]
O=C(c1c(F)cccc1F)N1CCCC(c2nc(-c3cccs3)no2)C1 (stereo unspecified) | 5.65 | 29.1 µM [falling, single point] | –
O=[N+]([O-])c1ccc(Sc2ccc(Cl)c(Cl)c2)nc1 | 82.6 | – | 29.1 µM [rising, single point]
COc1cc(NC(=O)CCC(=O)OCCCC(F)(F)C(F)(F)F)nc(OC)n1 | -44.2 | 11.6 µM [falling, partial curve] | 25.9 µM [falling, partial curve]
O=C(NC(Cc1ccccc1)C(=O)O)/C(=C\c1ccc(Cl)cc1)NC(=O)c1ccccc1 (stereo unspecified) | -0.319 | 0.184 µM [falling, full curve, poor fit] | –
CCOC(=O)CSc1nc2ccc(C)cc2n2cnnc12 | 18.5 | – | –
Cn1c(CNc2ccc(F)cc2)nc2ccccc21 | -9.52 | 0.116 µM [rising, full curve, poor fit] | –
O=S(=O)(N[C@H]1C[C@@H](NS(=O)(=O)OCC(Cl)(Cl)Cl)C2CCCCC21)OCC(Cl)(Cl)Cl (stereo partly specified) | -38 | – | 29.1 µM [falling, single point]
COc1ccc(CN(C)Cc2nc(Cc3cccc(F)c3)no2)c2cccnc12 | – | 29.1 µM [falling, single point] | –
COc1ccc(N2CCN(C(=O)COC(=O)Cc3cccc(OC)c3)CC2)cc1 | -16.1 | – | –
Cc1ccc2[nH]c(=O)c(CN(Cc3ccc4c(c3)OCO4)Cc3nnnn3Cc3ccco3)cc2c1 | – | – | 0.326 µM [rising, partial curve, poor fit]
CCOC(=O)C(Sc1cc(C)nc(N)n1)C(C)=O (stereo unspecified) | 23 | 0.164 µM [falling, full curve] | –
COc1ccc(NC(=S)NC(=O)c2cc3ccccc3o2)c(OC)c1 | -4.34 | 0.206 µM [rising, full curve, poor fit] | –
Cc1ccc(CCNC(=O)CS(=O)Cc2nc(-c3cccc(C)c3)oc2C)cc1 (stereo unspecified) | -0.465 | 5.8 µM [rising, partial curve] | –
CCOC(=O)c1ccc(N2C(=O)CC(Nc3ccc(CCO)cc3)C2=O)cc1 (stereo unspecified) | -5.52 | 18.4 µM [falling, single point] | –
NC(=O)CSc1ccc(-c2ccc(F)cc2)nn1 | 75.7 | 5.8 µM [falling, single point] | –

Compound | cell number change [%] | AC50 [1] | AC50 [2]
Cc1cc(NC(=O)CSCC(=O)N2CCN(c3cccc(C(F)(F)F)c3)CC2)no1 | – | – | 0.651 µM [falling, partial curve, poor fit]
Cc1nn(-c2ccccc2)c(C)c1C(=O)OCC(=O)Nc1ccccc1 | 23.7 | 29.1 µM [rising, partial curve, poor fit] | –
O=C(c1ccc2ccccc2c1)N1CCN(c2ccc(C(F)(F)F)cn2)CC1 | 1.08 | 0.058 µM [rising, full curve, poor fit] | 6.51 µM [rising, single point]
CCn1c(SCc2ccc(F)cc2)nnc1C1CCN(S(=O)(=O)c2ccc(OC)cc2)CC1 | 15 | 29.1 µM [falling, single point] | –
O=[N+]([O-])c1cccc(N/N=C/c2cc([N+](=O)[O-])ccc2O)c1 | 44.5 | – | 0.231 µM [rising, full curve]
CCN(CC)S(=O)(=O)c1ccc(C)c(NC(=O)COC(=O)CN2C(=O)NC(C)(C)C2=O)c1 | – | 1.84 µM [rising, partial curve] | –
Nc1nonc1C(=O)NCCNCc1cc(Br)ccc1OCc1ccc(F)cc1 | -26.8 | 20.6 µM [falling, single point] | –
COc1ccc(NC(=O)c2sccc2C)c([N+](=O)[O-])c1 | 1.9 | 2.31 µM [falling, single point] | –
COc1ccc(CN2C(=O)c3ccccc3C2=O)cc1C(=O)OCC(=O)NC1CCCCC1 | 20.3 | 0.731 µM [rising, full curve] | 6.51 µM [rising, single point]
O=C1NC(=Nc2ccc(Cl)cc2)/C(=C/c2ccco2)S1 | -16.7 | – | 6.51 µM [rising, single point]
Cc1cn([C@H](C(=O)NCCCCCCCCCCC(=O)N2CCN(C(=O)OC(C)(C)C)CC2)[C@@H](C)O)nn1 | 9.11 | 16.4 µM [falling, single point] | –
CCOc1ccccc1N1CC(C(=O)NNC(=O)c2cc(OC)c(OC)c(OC)c2)CC1=O (stereo unspecified) | -5.71 | 0.291 µM [rising, full curve] | –
CN(CC(=O)Nc1ccc(F)cc1)C(=O)c1cn(-c2ccccc2)nc1-c1cccs1 | -33.4 | 2.06 µM [falling, partial curve] | 29.1 µM [falling, single point]
CCOCCCNC(=O)C1CCCCN1S(=O)(=O)c1ccc(F)cc1 (stereo unspecified) | 5.27 | 6.51 µM [falling, single point] | –
COc1cccc(OC)c1OC(=O)c1cnccn1 | -20 | – | –
O=C(CSc1nnc2sc3ccccc3n12)c1ccco1 | – | 6.51 µM [falling, single point] | –
CCS(=O)CCSC(=N)N (stereo unspecified) | 36.6 | 29.1 µM [rising, single point] | 29.1 µM [rising, single point]
O=C(c1ccc(Br)cc1)N1CCCC1 | 14.4 | – | 1.16 µM [rising, partial curve]
CC(C)(C)c1cc(C(=O)Nc2ccc(F)cc2)n(Cc2ccc(F)cc2)n1 | -28 | – | –
COC(=O)N/N=C1/C/C(=N\NC(=O)OC)c2ccccc21 | 24.2 | – | –

Just cell number change [%], for 3 of the compounds above:
Compound	cell number change [%]
CCn1c(SCc2ccc(F)cc2)nnc1C1CCN(S(=O)(=O)c2ccc(OC)cc2)CC1	15
Nc1nonc1C(=O)NCCNCc1cc(Br)ccc1OCc1ccc(F)cc1	-26.8
COc1ccc(NC(=O)c2sccc2C)c([N+](=O)[O-])c1	1.9

(further entries)

Compound | cell number change [%] | AC50 [1] | AC50 [2]
CN(C)c1ccc(-c2nc3ccccc3c(=O)[nH]2)cc1 | 18.2 | – | –
COc1ccc(NC(=O)c2ccc(N3C(=O)C4CC=C(Cl)CC4C3=O)cc2)cc1 (stereo unspecified) | -6.26 | 18.4 µM [falling, single point] | –
CCCNC(=O)c1cc(Cl)c(NC(=O)C2=C(C)OCCS2)cc1OC | 36.6 | 4.11 µM [rising, single point] | 0.00461 µM [rising, full curve, poor fit]
O=C(c1ccc(C(F)(F)F)cc1)N1CCCCC1 | -9.2 | 16.4 µM [falling, partial curve] | –
O=C(CCS(=O)(=O)c1ccc(Br)cc1)N1CCN(c2ccc(F)cc2)CC1 | 13.7 | – | –
CCCn1c(=O)[nH]c(=O)c2c1nc(-c1ccc(OC(F)(F)C(F)C(F)(F)F)cc1)n2CCOC (stereo unspecified) | -15.1 | 0.259 µM [rising, full curve, poor fit] | –
O=S(=O)(c1ccc2ccccc2c1)N1CCN(C2Cc3ccccc3C2)CC1 | 33.1 | 1.64 µM [rising, partial curve] | 29.1 µM [rising, single point]
COC(=O)C1=CO[C@@H](O[C@@H]2O[C@H](CO)[C@@H](O)[C@H](O)[C@H]2O)C2C1C[C@H](O)[C@@H]2C (stereo partly specified) | 15.9 | 6.51 µM [falling, partial curve, poor fit] | 6.51 µM [falling, single point]
CC1CCCCC1NC(=O)COC(=O)/C=C/c1ccc2c(c1)OCO2 (stereo unspecified) | – | 23.1 µM [rising, single point] | –
CCN(CC(=O)Nc1ccccc1OC)C(=O)c1ccc(NC(=O)c2cccs2)cc1 | -39.5 | – | –
Fc1ccc(-c2csc(N3CCSCC3)n2)cc1 | 52 | – | 0.146 µM [rising, partial curve, poor fit]
Cc1cc(=O)[nH]c(SCC(=O)Nc2ccc(Br)cc2)c1C#N | -10.7 | 18.4 µM [falling, single point] | –
CC(Nc1ccc(Cl)cc1)c1cc(Cl)ccc1O (stereo unspecified) | -60.2 | 8.2 µM [falling, partial curve] | 5.17 µM [falling, full curve]
O=C(O)Cc1ccc(C(=O)c2ccccc2)s1 | 23.7 | 29.1 µM [rising, single point] | –
COc1cccc(-n2c(=O)c3ccccc3n3c(=S)[nH]nc23)c1 | 30.8 | 0.259 µM [falling, partial curve] | 2.91 µM [rising, partial curve, poor fit]
O=C(Nc1cccc2ncccc12)c1cc(Br)ccc1Cl | -33 | – | 0.366 µM [falling, partial curve, poor fit]
O=C(NC1CCOc2ccccc21)C1CCCC1 (stereo unspecified) | 7.83 | – | –
O=C1c2ccccc2C(O)(c2ccccc2)N1C1CC1 (stereo unspecified) | -1.52 | – | –
Cc1ccc(Cl)cc1N1CCN(Cc2nc3c(c(=O)[nH]c(=O)n3C)n2Cc2ccccc2F)CC1 | 96.7 | 23.1 µM [rising, partial curve] | 10.3 µM [rising, partial curve, poor fit]
